Results as given in patent US20210169959A1, “TERMINALIA FERDINANDIANA EXTRACT AND PRODUCTS CONTAINING EXTRACT OF TERMINALIA FERDINANDIANA FOR ANTIMICROBIAL OR ANTIBACTERIAL APPLICATIONS” (RISING PHOENIX INDUSTRIES PTY LTD, priority 2017, published 2021).
Some of these results come from one statement about several compounds together. At least one structure is not confirmed: it was looked up by name or label, or the drawing left a doubt.

Legend:
human dermal fibroblast = conditions: compound alone; no LC50 reported
Artemia nauplii = conditions: compound alone; no LC50 reported

| Structure (SMILES) | mortality for all concentrations tested (human dermal fibroblast) | mortality for all concentrations tested (Artemia nauplii) |
| --- | --- | --- |
| O=C(O)[C@H]1O[C@@H](Oc2cccc(O)c2O)[C@H](O)[C@@H](O)[C@@H]1O [DPGA, 2,3-dihydroxyphenyl B-D-glucopyranosiduronic acid] | less than 50% | less than 50% |
| O=C1O[C@@H]([C@H](O)[C@H](O)CO)[C@@H](O)[C@H]1O [Glucohepatonic acid lactone, glucohepatonic acid-1,4-lactone] | less than 50% | less than 50% |
| O=C1O[C@H](CO)[C@@H](O)[C@H](O)[C@H]1O [Gluconolactone, gluconolactone] | less than 50% | less than 50% |
| c1ncc2[nH]cnc2n1 [Purine, purine] | less than 50% | less than 50% |
| O=C(O)[C@]1(O)C[C@@H](O)[C@@H](O)[C@H](O)C1 [Quinic acid, quinic acid] | less than 50% | less than 50% |
| O=C1O[C@H](CO)[C@@H](O)[C@H]1O [Ribolactone, ribonolactone] | less than 50% | less than 50% |
